Assay results published in article PMC8440590.
Results are given in words; binding and its absence hold for the method and conditions named. In cells and extracts the contact can be indirect. Some results given as binding are weak or reduced against the parent protein; the word gives no strength.

Amino acid sequences for entries named in this document (tags omitted). Residues count along the entry.
UniProt P31421, residues 19-872: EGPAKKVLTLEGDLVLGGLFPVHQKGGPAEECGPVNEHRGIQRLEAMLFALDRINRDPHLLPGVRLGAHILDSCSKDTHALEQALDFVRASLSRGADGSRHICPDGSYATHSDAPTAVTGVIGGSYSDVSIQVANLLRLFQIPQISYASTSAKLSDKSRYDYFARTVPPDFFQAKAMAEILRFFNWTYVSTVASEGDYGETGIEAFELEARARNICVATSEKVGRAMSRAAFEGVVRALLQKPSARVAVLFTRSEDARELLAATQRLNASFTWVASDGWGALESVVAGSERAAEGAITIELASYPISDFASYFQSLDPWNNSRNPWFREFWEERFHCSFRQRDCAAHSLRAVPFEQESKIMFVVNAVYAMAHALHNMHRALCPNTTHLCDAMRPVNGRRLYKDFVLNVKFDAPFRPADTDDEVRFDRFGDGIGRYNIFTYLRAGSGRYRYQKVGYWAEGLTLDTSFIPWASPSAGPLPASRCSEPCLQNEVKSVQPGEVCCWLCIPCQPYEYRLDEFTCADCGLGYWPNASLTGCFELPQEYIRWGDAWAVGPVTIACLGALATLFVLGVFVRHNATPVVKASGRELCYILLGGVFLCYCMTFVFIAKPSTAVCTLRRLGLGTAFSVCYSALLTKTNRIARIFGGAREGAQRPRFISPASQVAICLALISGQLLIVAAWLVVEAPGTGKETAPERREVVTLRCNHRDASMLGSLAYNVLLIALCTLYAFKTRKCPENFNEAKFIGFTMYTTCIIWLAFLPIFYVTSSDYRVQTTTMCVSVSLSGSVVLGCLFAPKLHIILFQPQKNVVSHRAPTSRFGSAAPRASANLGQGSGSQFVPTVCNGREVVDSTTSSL

Target: full-length rat mGlu2 (SNAP-sensor based on the rat receptor) (rat) (UniProt P31421)
Test: FRET or BRET; intersubunit LRET between SNAP-tag labeled subunits (Lumi4-Tb donor, green acceptor) in microtiter plates, on crude membranes or after detergent solubilization (IGEPAL, DDM, LMNG, CHS, GDN mixtures), acquisition buffer pH 7.4, room temperature

Question: For “full-length rat mGlu2 (SNAP-sensor based on the rat receptor) (from UniProt P31421 19-872)”, which binding is on record?
Answer: The binding was “binds”.
